{
  "source": "paper PMC3798644",
  "about": "“Molecular Basis for Oligomeric-DNA Binding and Episome Maintenance by KSHV LANA” (PLoS Pathogens, 2013)",
  "binders": {"B1": {"name": "FLAG-tagged full-length LANA, wild type, Q76SB0 1-1162 (protein)", "chain": "MAPPGMRLRSGRSTGAPLTRGSCRKRNRSPERCDLGDDLHLQPRRKHVADSIDGRECGPHTLPIPGSPTVFTSGLPAFVSSPTLPVAPIPSPAPATPLPPPALLPPVTTSSSPIPPSHPVSPGTTDTHSPSPALPPTQSPESSQRPPLSSPTGRPDSSTPMRPPPSQQTTPPHSPTTPPPEPPSKSSPDSLAPSTLRSLRKRRLSSPQGPSTLNPICQSPPVSPPRCDFANRSVYPPWATESPIYVGSSSDGDTPPRQPPTSPISIGSSSPSEGSWGDDTAMLVLLAEIAEEASKNEKECSENNQAGEDNGDNEISKESQVDKDDNDNKDDEEEQETDEEDEEDDEEDDEEDDEEDDEEDDEEDDEEDDEEDDEEDDEEDDEEDDEEEDEEEDEEEDEEEEDEEDDDDEDNEDEEDDEEEDKKEDEEDGGDGNKTLSIQSSQQQQEPQQQEPQQQEPQQQEPLQEPQQQEPQQQEPQQQEPLQEPQQQEPQQQEPLQEPQQQEPQQQEPQQQEPQQQEPQQQEPQQQEPQQQEPQQQEPQQQEPQQQEPQQREPQQREPQQREPQQREPQQREPQQREPQQREPQQREPQQREPQQQDEQQQDEQQQDEQQQDEQQQDEQQQDEQQQDEQQQDEQQQDEQQQDEQQQDEQQQDEQQQDEQQQDEQQQDEQQQDEQQQDEQQQDEQQQDEQQQDEQQQDEQEQQDEQEQQDEQEQQDEQQQDEQQQQDEQQQQDEQQQQDEQQQQDEQQQQDEQEQQEEQEQQEEQEQELEEQEQELEDQEQELEEQEQELEEQEQELEEQEQELEEQEQELEEQEQELEEQEQELEEQEQELEEQEQELEEQEVEEQEQEVEEQEQEQEEQELEEVEEQEQEQEEQEEQELEEVEEQEEQELEEVEEQEEQELEEVEEQEQQELEEVEEQEQQGVEQQEQETVEEPIILHGSSSEDEMEVDYPVVSTHEQIASSPPGDNTPDDDPQPGPSREYRYVLRTSPPHRPGVRMRRVPVTHPKKPHPRYQQPPVPYRQIDDCPAKARPQHIFYRRFLGKDGRRDPKCQWKFAVIFWGNDPYGLKKLSQAFQFGGVKAGPVSCLPHPGPDQSPITYCVYVYCQNKDTSKKVQMARLAWEASHPLAGNLQSSIVKFKKPLPLTQPGENQGPGDSPQEMT"}},
  "molecular_target": "T1, FLAG-tagged full-length LANA, wild type (Kaposi's sarcoma-associated herpesvirus (KSHV)), Q76SB0",
  "T1 chain": "B1 chain",
  "assay": "native gel or EMSA; agarose gel EMSA; affinity purified full-length FLAG-LANA at ~200 nM with radiolabelled LBS1 or LBS1/2 DNA probe at 2.5 nM; 10 mM HEPES pH 7.9, 10% glycerol, 100 mM KCl, 5 mM MgCl2; oligomeric nucleoprotein complexes on DNA; both purified",
  "details": "remark: other sources report otherwise",
  "note": "No constants are given. Whether binding was seen depends on the method and setting. Some entries that bind do so weakly or less than the wild type. Tags and fused reporters may be left off the sequences shown.",
  "data": [
    {"binder": "B1", "values": [
      {"measurement": "binding", "value": "binds"}
    ]}
  ]
}
